# The supplement of paper PMC4683952
# Structures can show the parent of a compound that is named as a salt. Out of some 1,200 compounds screened, about 50 (4%) showed activity. No stated cut-off is given here; in the data, all actives reach 1.3 or more but so do some inactives. The list shows a part of the results.
# Test system: Lgr5 (MarsCy1-Lgr5-EGFP, U2OS)
# Assay: cell-surface Lgr5 expression (SCi1 fluorescence, background-subtracted) relative to WT DMSO (fold of DMSO control); higher = more Lgr5 at the plasma membrane, active = hit call of the paper
# Settings: U2OS MarsCy1-Lgr5-EGFP stable; treatment time: overnight; 16 µM; library: Johns Hopkins Clinical Compound Library
row,Compound,cell-surface Lgr5 expression
1,CN(C(=O)C(Cl)Cl)c1ccc(OC(=O)c2ccco2)cc1 [Diloxanide furoate],inactive: 1.05
2,CN(C)CCOC(C)(c1ccccc1)c1ccccn1 (stereo unspecified) [Doxylamine Succinate salt],inactive: 1.18
3,C=CCNC(N)=S [Allylthiourea (1-Allyl-2-thiourea)],inactive: 1.12
4,C#C[C@]1(O)CC[C@H]2[C@@H]3CCc4cc(O)ccc4[C@H]3CC[C@@]21C.C[C@]12CCC(=O)C=C1[C@@H]1C[C@@H]1[C@H]1[C@@H]3[C@@H]4C[C@@H]4[C@@]4(CCC(=O)O4)[C@@]3(C)CC[C@@H]12 [Drospirenone and ethinyl estradiol],inactive: 0.912
5,CC(=O)c1ccc2c(c1)N(CCCN(C)C)c1ccccc1S2 [Acepromazine],inactive: 0.967
6,Oc1c(I)cc(Cl)c2cccnc12 [Clioquinol],inactive: 1.18
7,CC(C)(C#N)c1cc(Cn2cncn2)cc(C(C)(C)C#N)c1 [Anastrozole],inactive: 1.19
8,O=C(C1CCCCC1)N1CC(=O)N2CCc3ccccc3C2C1 (stereo unspecified) [Praziquantel],inactive: 1.17
9,CO[C@H]1/C=C/O[C@@]2(C)Oc3c(C)c(O)c4c(O)c(cc(O)c4c3C2=O)NC(=O)/C(C)=C\C=C\[C@H](C)[C@H](O)[C@@H](C)[C@@H](O)[C@@H](C)[C@H](OC(C)=O)[C@@H]1C [Rifamycin sv],inactive: 0.785
10,CN1CCC(=C2c3ccccc3CCc3cccnc32)CC1 [Azatadine maleate],inactive: 1.19
11,Nc1nc2ccc(OC(F)(F)F)cc2s1 [Riluzole],inactive: 0.449
12,Oc1cc(O)c2c(c1)O[C@H](c1ccc(O)c(O)c1)[C@H](O)C2 [Epicatechin (-)-],inactive: 1.07
13,[Mg+2].[OH-].[OH-] [Magnesium hydroxide],inactive: 1.25
14,CC(C)(C)NCC(O)COc1cccc2c1CCC(=O)N2 (stereo unspecified) [Carteolol hydrochloride],inactive: 1.08
15,O.O.O.O.O.O.[Al+3].[Cl-].[Cl-].[Cl-] [Aluminum chloride hexahydrate],inactive: 0.814
16,O=C(OCc1ccccc1)c1ccccc1O [Benzyl salicylate],inactive: 1.12
17,O=C(O)c1cc(/N=N/c2ccc(O)c(C(=O)O)c2)ccc1O [Olsalazine],inactive: 0.807
18,CC(=O)O[C@]1(C(C)=O)CC[C@H]2[C@@H]3C[C@H](C)C4=CC(=O)C=C[C@]4(C)[C@@]3(F)[C@@H](O)C[C@@]21C [Fluorometholone acetate],active: 1.31
19,CC(C)(C(=O)O)c1ccc(C(O)CCCN2CCC(C(O)(c3ccccc3)c3ccccc3)CC2)cc1 (stereo unspecified) [Fexofenadine hydrochloride],inactive: 0.998
20,NC(N)=S [Thiourea],inactive: 1.2
21,Cc1c(C)c2c(c(C)c1O)CCC(C)(COc1ccc(CC3SC(=O)NC3=O)cc1)O2 (stereo unspecified) [Troglitazone],inactive: 1.09
22,CCC(=O)Oc1ccc(/C(CC)=C(\CC)c2ccc(OC(=O)CC)cc2)cc1 [Diethylstilbestrol dipropionate],inactive: 0.886
23,C[C@H]1COc2c(C3(N)CC3)c(F)cc3c(=O)c(C(=O)O)cn1c23 [Pazufloxacin],inactive: 0.826
24,[Br-].[Li+] [Lithium bromide],inactive: 0.578

row,Compound,cell-surface Lgr5 expression
1,COC(=O)Nc1nc2cc(C(=O)c3ccccc3)ccc2[nH]1 [Mebendazole],inactive: 0.892
2,"CC(N)C(=O)O (racemic) [Alanine, D, L (DL-alpha-Alanine)]",inactive: 0.867
3,"CN1C(C)(C)CCCC1(C)C [Pempidine (1,2,2,6,6-pentamethylpiperidine)]",inactive: 1.3
4,[Na+].[OH-] [Sodium hydroxide],inactive: 0.75
5,CN(C)/N=N/c1[nH]cnc1C(N)=O [Dacarbazine],inactive: 1.09
6,CC[N+](C)(C)Cc1ccccc1Br [Bretylium tosylate],inactive: 0.812
7,C[N+](C)(C)CCCCCC[N+](C)(C)C [Hexamethonium Chloride],inactive: 0.938
8,O=C(O)c1cccnc1Nc1cccc(C(F)(F)F)c1 [Niflumic acid],inactive: 1.19
9,CCOC(=O)[C@H](CCc1ccccc1)N[C@@H](C)C(=O)N1Cc2ccccc2C[C@H]1C(=O)O [Quinapril],inactive: 1.13
10,[I-].[Rb+] [Rubidium iodide],inactive: 1.04
11,CN1CCc2c(c3ccccc3n2Cc2ccccc2)C1 [Mebhydrolin],inactive: 0.967
12,N=C(N)c1ccc(OCCCCCOc2ccc(C(=N)N)cc2)cc1 [Pentamidine],inactive: 1.33
13,Cn1c(NCCN(CCO)CCCc2ccc([N+](=O)[O-])cc2)cc(=O)n(C)c1=O [Nifekalant],inactive: 0.923
14,OCCOCCN1CCN(C2=Nc3ccccc3Sc3ccccc32)CC1 [Quetiapine fumarate],inactive: 0.456
15,COc1cccc2c1C(=O)c1c(O)c3c(c(O)c1C2=O)C[C@@](O)(C(=O)CO)C[C@@H]3O[C@H]1C[C@H](N)[C@H](O)[C@H](C)O1 [Doxorubicin],inactive: 0.634
16,COc1cccc2c1[C@@H]1CN(CCCCn3c(=O)[nH]c4c(sc5ncc(-c6ccccc6)nc54)c3=O)C[C@@H]1CO2 [Fiduxosin],inactive: 1.09
17,"Nc1nc(Cl)nc2c1ncn2[C@H]1C[C@H](O)[C@@H](CO)O1 [Cladribine (2-chloro,2-deoxyadenosine)]",inactive: 0.832
18,CN[C@@H]1[C@H](O[C@H]2[C@H](O[C@H]3[C@H](O)[C@@H](O)[C@H](N=C(N)N)[C@@H](O)[C@@H]3N=C(N)N)O[C@@H](C)[C@]2(O)C=O)O[C@@H](CO)[C@H](O)[C@H]1O [Streptomycin sulfate],inactive: 1.05
19,CNCCCC1c2ccccc2C=Cc2ccccc21 [Protriptyline],inactive: 0.38
20,COC(=O)c1cccnc1 [Methyl nicotinate],inactive: 1.24
21,COc1ccc(CCN(C)CCCC(C#N)(c2ccc(OC)c(OC)c2)C(C)C)cc1OC (stereo unspecified) [Verapamil],inactive: 0.834
22,[Cl-].[Rb+] [Rubidium Chloride],inactive: 0.62
23,CCCc1cc(=O)[nH]c(=S)[nH]1 [Propylthiouracil (6-n-Propyl-2-thiouracil)],inactive: 0.953
24,C[N+]1(CCCCC[N+]2(C)CCCC2)CCCC1 [Pentolinium],inactive: 0.948

row,Compound,cell-surface Lgr5 expression
1,O.O.O.O.O.O.[Cl-].[Cl-].[Sr+2] [Strontium chloride hexahydrate],inactive: 1.29
2,C[C@]12CC[C@@H]3c4ccc(O)cc4CC[C@H]3[C@@H]1CC[C@@H]2O [β-Estradiol],inactive: 1.15
3,CCCN(CCC)S(=O)(=O)c1ccc(C(=O)O)cc1 [Probenecid],inactive: 1.01
4,"CCN(CC)C(=O)c1cccnc1 [Nikethamide (N,N Diethylnicotinamide)]",inactive: 1.25
5,"O=P(O)(O)OC1C(OP(=O)(O)O)C(OP(=O)(O)O)C(OP(=O)(O)O)C(OP(=O)(O)O)C1OP(=O)(O)O (stereo unspecified) [Phytic acid, dodecasodium salt hydrate]",inactive: 0.522
6,COc1ccc2[nH]c([S+]([O-])Cc3ncc(C)c(OC)c3C)nc2n1 (stereo unspecified) [Tenatoprazole],inactive: 1.17
7,CN(C)CCOC(c1ccccc1)c1ccccc1 [Diphenhydramine],inactive: 1.13
8,"O=Cc1cc(Br)cc(Br)c1O [3,5-Dibromosalicylaldehyde]",inactive: 1.17
9,CC(=O)[C@H]1CC[C@H]2[C@@H]3CCC4=CC(=O)CC[C@]4(C)[C@H]3CC[C@]12C [Progesterone],inactive: 1.16
10,C[C@@H](O)CCCCn1c(=O)c2c(ncn2C)n(C)c1=O [Lisofylline],inactive: 1.14
11,O.[Al+3].[Al+3].[Cl-].[OH-].[OH-].[OH-].[OH-].[OH-] [Aluminum chlorohydrate],inactive: 0.754
12,O.O=C(O)[C@H](O)[C@@H](O)[C@H](O)[C@H](O)CO.O=C(O)[C@H](O)[C@@H](O)[C@H](O)[C@H](O)CO.[Fe] [Ferrous gluconate hydrate],inactive: 0.892
13,N=C(N)NC(=O)Cc1c(Cl)cccc1Cl [Guanfacine],inactive: 1.19
14,O=S(O)(O)=S [Sodium Thiosulfate],inactive: 1.04
15,COc1cc(O)c(C(=O)c2ccccc2)cc1S(=O)(=O)O [Sulisobenzone (2-Hydroxy-4-methoxy-5-sulfobenzophenone)],inactive: 0.701
16,O=C(O)CC(O)(CC(=O)O)C(=O)O [Citric acid],inactive: 1.15
17,O=P([O-])([O-])O.[K+].[K+] [Potassium phosphate dibasic],inactive: 1.09
18,CC(O)C(=O)O.N (stereo unspecified) [Ammonium lactate],inactive: 0.823
19,Nc1ccn([C@@H]2O[C@H](CO)[C@@H](O)C2(F)F)c(=O)n1 [Gemcitabine],inactive: 0.795
20,CN1C(=O)CC(c2ccccc2)C1=O (stereo unspecified) [Phensuximide],inactive: 0.589
21,CN(C)CCN(Cc1ccccc1)c1ccccn1 [Tripelennamine],inactive: 1.14
22,CC(O)C(=O)[O-].CC(O)C(=O)[O-].[Fe+2] (stereo unspecified) [Ferrous lactate],inactive: 1.05
23,Clc1ccc(CSC(Cn2ccnc2)c2ccc(Cl)cc2Cl)cc1 (stereo unspecified) [Sulconazole],inactive: 0.608

# Look-ups from above:
# Nc1ccn([C@@H]2O[C@H](CO)[C@@H](O)C2(F)F)c(=O)n1 [Gemcitabine] | cell-surface Lgr5 expression: inactive: 0.795
# O.[Al+3].[Al+3].[Cl-].[OH-].[OH-].[OH-].[OH-].[OH-] [Aluminum chlorohydrate] | cell-surface Lgr5 expression: inactive: 0.754
